# Measurements taken from the supplement of paper PMC6411743.
# By UniProt entry, the sequences of proteins in these tests, tags left out. Where a name states a change or a piece, a line headed by the entry shows the natural chain unless it says otherwise.
# UniProt O95707: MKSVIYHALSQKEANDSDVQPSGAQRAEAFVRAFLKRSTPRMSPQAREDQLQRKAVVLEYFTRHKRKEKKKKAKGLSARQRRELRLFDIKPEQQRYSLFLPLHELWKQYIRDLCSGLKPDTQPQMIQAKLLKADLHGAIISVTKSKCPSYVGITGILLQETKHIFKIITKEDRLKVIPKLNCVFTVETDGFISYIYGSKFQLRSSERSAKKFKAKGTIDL
# UniProt O15498: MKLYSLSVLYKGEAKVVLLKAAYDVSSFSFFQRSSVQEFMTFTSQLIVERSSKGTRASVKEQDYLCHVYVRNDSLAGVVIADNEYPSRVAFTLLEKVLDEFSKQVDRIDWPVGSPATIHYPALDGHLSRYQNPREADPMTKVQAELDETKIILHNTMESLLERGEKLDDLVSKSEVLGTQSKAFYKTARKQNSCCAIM
# UniProt O43633: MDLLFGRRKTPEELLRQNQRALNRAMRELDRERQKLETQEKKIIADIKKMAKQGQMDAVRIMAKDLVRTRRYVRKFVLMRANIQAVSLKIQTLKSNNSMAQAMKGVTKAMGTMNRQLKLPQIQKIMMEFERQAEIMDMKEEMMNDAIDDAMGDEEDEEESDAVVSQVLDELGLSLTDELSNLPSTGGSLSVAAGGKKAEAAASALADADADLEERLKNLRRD
# UniProt O14949: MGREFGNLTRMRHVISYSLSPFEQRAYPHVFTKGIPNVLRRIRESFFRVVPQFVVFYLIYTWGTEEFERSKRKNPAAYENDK
# UniProt O15382: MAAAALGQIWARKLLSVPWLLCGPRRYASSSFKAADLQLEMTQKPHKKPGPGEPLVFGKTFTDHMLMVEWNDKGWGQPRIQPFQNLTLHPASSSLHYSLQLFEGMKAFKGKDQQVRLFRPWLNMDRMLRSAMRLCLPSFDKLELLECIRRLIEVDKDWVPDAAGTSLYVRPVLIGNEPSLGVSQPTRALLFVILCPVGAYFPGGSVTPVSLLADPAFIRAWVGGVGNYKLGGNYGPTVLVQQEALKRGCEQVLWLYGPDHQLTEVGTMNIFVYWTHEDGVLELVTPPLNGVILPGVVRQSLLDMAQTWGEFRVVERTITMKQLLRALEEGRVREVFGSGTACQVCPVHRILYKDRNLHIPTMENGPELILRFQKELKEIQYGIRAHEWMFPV
# UniProt O00716: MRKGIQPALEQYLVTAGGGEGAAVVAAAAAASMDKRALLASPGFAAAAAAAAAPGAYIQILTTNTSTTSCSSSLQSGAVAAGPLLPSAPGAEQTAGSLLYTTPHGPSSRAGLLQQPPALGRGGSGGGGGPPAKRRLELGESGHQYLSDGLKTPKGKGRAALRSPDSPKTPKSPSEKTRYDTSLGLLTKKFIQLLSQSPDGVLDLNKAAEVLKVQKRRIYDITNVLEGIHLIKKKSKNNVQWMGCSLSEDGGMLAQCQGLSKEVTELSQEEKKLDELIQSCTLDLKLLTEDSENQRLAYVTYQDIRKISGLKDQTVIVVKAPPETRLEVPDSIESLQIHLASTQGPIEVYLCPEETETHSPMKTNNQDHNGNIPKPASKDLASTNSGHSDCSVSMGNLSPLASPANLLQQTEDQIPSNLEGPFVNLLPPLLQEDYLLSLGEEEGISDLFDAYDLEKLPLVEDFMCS
# UniProt O15160, whole entry: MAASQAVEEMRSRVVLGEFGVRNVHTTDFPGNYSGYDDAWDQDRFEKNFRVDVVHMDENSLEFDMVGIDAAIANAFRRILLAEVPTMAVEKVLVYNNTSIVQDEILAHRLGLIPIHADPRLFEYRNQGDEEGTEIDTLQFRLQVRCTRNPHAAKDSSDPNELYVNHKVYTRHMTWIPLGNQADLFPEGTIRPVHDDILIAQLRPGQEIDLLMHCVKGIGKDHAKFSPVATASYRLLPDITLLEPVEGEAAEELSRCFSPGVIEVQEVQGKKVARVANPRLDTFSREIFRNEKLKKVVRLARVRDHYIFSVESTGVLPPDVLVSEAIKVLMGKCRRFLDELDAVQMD
# UniProt Q9GZN7, whole entry: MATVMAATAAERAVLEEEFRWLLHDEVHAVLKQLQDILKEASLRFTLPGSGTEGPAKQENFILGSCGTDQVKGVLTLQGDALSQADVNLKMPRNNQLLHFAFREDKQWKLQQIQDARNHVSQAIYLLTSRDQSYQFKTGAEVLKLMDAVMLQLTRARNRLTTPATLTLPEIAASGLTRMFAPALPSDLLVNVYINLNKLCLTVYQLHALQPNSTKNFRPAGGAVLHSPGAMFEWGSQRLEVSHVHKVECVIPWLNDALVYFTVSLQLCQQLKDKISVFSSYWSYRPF
# UniProt O43399: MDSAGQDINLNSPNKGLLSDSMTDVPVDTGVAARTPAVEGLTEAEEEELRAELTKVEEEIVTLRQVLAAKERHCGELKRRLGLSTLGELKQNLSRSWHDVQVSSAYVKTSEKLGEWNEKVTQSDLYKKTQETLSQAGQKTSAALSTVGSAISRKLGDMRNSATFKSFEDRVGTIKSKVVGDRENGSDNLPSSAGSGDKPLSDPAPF
# UniProt Q04725: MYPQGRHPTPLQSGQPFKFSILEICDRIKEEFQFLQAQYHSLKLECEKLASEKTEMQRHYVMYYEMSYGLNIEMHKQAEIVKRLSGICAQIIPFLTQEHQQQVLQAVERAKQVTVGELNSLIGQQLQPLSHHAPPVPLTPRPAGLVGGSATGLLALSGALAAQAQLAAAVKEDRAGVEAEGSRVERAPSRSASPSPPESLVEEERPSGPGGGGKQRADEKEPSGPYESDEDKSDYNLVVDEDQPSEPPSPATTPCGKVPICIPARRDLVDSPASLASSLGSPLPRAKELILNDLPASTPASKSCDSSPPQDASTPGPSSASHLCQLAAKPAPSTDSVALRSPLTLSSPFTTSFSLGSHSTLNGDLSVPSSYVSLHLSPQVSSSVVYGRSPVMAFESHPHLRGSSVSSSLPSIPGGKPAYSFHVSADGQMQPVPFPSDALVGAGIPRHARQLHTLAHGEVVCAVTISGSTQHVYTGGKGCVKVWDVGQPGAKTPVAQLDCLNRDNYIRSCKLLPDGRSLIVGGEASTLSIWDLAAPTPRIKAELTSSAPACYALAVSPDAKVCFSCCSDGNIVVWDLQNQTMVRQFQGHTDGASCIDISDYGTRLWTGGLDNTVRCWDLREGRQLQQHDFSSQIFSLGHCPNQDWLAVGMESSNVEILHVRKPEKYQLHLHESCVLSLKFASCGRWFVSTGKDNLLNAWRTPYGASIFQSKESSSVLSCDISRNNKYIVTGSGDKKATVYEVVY
# UniProt O43615: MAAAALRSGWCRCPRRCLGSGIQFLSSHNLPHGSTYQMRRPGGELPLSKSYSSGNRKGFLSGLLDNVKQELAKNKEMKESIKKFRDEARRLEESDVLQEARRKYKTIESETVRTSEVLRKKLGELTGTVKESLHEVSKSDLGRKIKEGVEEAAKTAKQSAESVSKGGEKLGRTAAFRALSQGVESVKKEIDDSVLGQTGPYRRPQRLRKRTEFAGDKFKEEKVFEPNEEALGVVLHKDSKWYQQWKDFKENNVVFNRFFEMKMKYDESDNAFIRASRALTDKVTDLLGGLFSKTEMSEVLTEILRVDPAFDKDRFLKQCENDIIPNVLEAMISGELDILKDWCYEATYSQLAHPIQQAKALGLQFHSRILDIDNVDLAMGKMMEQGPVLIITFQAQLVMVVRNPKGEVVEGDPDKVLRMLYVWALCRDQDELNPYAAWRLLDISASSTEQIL
# UniProt Q6UUV9: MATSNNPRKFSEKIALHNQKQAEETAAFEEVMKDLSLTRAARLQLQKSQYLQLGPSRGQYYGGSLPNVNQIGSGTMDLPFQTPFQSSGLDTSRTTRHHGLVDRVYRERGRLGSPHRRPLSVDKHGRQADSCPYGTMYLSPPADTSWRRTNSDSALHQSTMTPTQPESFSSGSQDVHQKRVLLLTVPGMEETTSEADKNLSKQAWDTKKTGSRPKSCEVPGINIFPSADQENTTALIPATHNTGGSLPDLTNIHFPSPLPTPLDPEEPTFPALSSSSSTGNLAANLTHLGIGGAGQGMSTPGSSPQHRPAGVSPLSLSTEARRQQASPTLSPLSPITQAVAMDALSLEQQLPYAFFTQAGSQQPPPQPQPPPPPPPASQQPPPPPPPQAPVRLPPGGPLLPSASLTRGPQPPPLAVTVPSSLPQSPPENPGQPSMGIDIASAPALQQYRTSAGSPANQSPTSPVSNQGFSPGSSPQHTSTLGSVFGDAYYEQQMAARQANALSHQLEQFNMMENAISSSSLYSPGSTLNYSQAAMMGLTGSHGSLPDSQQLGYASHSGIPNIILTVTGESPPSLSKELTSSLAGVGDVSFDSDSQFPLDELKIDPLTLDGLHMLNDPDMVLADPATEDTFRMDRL
# UniProt O14579: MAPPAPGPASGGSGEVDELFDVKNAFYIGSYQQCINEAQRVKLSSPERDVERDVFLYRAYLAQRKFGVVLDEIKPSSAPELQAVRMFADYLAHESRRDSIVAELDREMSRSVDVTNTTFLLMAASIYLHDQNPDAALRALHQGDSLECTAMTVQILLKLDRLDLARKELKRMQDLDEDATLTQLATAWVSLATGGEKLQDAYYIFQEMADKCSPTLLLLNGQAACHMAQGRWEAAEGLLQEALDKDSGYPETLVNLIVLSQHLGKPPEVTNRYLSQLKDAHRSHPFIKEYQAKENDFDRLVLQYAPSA
# UniProt O43422: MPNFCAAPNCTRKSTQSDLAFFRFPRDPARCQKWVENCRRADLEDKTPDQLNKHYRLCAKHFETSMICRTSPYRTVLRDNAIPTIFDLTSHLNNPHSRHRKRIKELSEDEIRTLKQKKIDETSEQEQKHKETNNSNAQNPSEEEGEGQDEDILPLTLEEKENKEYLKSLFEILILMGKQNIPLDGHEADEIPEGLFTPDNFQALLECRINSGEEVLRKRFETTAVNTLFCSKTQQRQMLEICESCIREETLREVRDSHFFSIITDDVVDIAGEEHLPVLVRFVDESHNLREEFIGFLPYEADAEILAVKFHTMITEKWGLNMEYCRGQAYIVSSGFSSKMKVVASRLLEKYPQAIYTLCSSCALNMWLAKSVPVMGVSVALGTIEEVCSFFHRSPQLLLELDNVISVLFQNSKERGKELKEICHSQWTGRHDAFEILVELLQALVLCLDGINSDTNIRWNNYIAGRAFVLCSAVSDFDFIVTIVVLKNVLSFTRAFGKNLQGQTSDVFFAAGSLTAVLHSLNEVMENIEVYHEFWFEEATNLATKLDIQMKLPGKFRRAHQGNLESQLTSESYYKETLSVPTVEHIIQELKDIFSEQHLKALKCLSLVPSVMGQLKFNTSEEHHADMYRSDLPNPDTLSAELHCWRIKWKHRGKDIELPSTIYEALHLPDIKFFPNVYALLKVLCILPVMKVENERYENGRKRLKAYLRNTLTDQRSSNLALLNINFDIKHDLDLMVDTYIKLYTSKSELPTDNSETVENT
# UniProt O00592: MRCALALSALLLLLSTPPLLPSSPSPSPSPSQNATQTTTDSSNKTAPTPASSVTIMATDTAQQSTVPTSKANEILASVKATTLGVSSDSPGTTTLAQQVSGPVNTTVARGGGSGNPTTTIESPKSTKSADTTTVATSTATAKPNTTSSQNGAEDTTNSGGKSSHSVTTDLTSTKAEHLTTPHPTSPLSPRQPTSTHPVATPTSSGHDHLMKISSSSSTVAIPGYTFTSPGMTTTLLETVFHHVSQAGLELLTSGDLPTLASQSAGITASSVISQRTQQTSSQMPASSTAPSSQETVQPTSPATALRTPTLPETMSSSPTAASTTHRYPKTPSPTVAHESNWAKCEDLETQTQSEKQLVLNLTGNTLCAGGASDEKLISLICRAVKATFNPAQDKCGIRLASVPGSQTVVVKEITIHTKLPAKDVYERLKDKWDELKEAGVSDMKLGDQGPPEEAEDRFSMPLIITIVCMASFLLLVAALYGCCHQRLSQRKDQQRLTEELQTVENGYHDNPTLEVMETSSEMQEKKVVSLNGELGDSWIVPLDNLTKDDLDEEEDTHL
# UniProt Q6AI12: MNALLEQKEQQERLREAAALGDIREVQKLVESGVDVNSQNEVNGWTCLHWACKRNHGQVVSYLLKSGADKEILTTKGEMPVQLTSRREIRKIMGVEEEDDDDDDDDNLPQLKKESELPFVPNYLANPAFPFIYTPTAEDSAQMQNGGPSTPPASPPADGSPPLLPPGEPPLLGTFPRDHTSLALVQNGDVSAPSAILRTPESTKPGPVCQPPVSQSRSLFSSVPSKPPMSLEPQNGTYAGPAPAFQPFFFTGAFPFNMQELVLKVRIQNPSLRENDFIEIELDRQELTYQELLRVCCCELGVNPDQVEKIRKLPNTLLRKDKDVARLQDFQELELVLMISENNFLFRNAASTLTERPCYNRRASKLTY
# UniProt O14828: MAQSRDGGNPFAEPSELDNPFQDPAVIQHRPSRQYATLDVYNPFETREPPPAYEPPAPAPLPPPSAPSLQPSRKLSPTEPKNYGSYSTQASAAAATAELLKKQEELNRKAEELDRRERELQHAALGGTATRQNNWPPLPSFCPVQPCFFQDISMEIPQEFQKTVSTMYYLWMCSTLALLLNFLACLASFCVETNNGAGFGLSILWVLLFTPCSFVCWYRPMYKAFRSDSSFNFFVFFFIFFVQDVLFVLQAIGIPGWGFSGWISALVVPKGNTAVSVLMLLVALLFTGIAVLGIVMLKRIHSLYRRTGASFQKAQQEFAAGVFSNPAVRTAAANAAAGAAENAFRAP
# ± gives the standard deviation of the averaged measurements. This is a selection; strong and weak results do not stand in their true shares.
# Compound: Nc1ncnc2c1ncn2[C@@H]1O[C@H](COP(=O)(O)OP(=O)(O)NP(=O)(O)O)[C@@H](O)[C@H]1O [adenylyl imidodiphosphate]
# Assay: NP40-soluble protein abundance relative to vehicle (solubility fold change) (ratio); higher = more soluble protein in presence of AMP-PNP
# Outline: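 Data come from three independent experiments in which Dounce-homogenised Jurkat crude lysate was treated at eight concentrations from 0.1 to 10 mM. Treatment ran 10 min at room temperature and then 3 min at 37 °C, after which 0.8% NP40 and benzonase were added for 60 min at 4 °C before ultracentrifugation. The supernatant underwent TMT labelling and LC-MS/MS, and vsn-normalised intensities were expressed as fold change against the detergent-processed vehicle in each replicate.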
Target,NP40-soluble protein abundance (concentration: 1mM),NP40-soluble protein abundance (concentration: 2mM),NP40-soluble protein abundance (concentration: 4mM),NP40-soluble protein abundance (concentration: 6mM),NP40-soluble protein abundance (concentration: 8mM),NP40-soluble protein abundance (concentration: 10mM)
K7ELE3 and related entries (UniProt Q08117),0.974 ± 0.074,0.996 ± 0.033,0.989 ± 0.081,0.973 ± 0.046,0.946 ± 0.053,0.961 ± 0.053
K7EQV2 and related entries (UniProt O95707),0.957 ± 0.023,0.905 ± 0.055,0.978 ± 0.095,0.984 ± 0.042,1.04 ± 0.069,0.995 ± 0.096
TRAFD1 (UniProt O14545),1.012 ± 0.0023,1.03 ± 0.013,0.996 ± 0.035,0.97 ± 0.019,0.99 ± 0.041,0.96 ± 0.038
M0QYS1 and related entries (UniProt P40429),1.01 ± 0.071,1 ± 0.023,0.954 ± 0.066,0.911 ± 0.046,0.832 ± 0.0099,0.934 ± 0.11
YKT6 (UniProt O15498),0.9793 ± 0.007,0.968 ± 0.03,0.905 ± 0.045,0.933 ± 0.02,0.912 ± 0.03,0.908 ± 0.06
SLC25A20 (UniProt O43772),0.986 ± 0.032,0.97 ± 0.012,0.972 ± 0.033,1.02 ± 0.085,1.05 ± 0.052,1.01 ± 0.011
PHGDH (UniProt O43175),0.969 ± 0.066,0.911 ± 0.086,0.89 ± 0.083,0.894 ± 0.12,0.963 ± 0.049,0.932 ± 0.048
OGT (UniProt O15294),0.98 ± 0.021,0.966 ± 0.026,1 ± 0.035,0.968 ± 0.029,0.959 ± 0.027,0.966 ± 0.036
K7ES11 and related entries (UniProt Q9C0C9),0.987 ± 0.031,1 ± 0.026,0.992 ± 0.014,1.01 ± 0.023,0.985 ± 0.012,1 ± 0.027
UniProt O15379 and related entries,0.979 ± 0.027,0.942 ± 0.077,0.939 ± 0.027,0.935 ± 0.013,0.918 ± 0.012,0.9441 ± 0.0079
UniProt O00499-2|O00499-4|O00499-6|O00499-7|O00499-9,1.016 ± 0.0054,1.07 ± 0.046,1.04 ± 0.041,1.01 ± 0.016,0.97 ± 0.018,1 ± 0.062
CHMP2A (UniProt O43633),0.949 ± 0.013,1.02 ± 0.094,0.936 ± 0.021,0.966 ± 0.043,0.971 ± 0.031,0.915 ± 0.078
DCTN6 (UniProt O00399),0.973 ± 0.096,0.998 ± 0.038,0.969 ± 0.1,0.978 ± 0.088,0.97 ± 0.1,0.98 ± 0.068
UQCRQ (UniProt O14949),0.928 ± 0.078,0.99 ± 0.017,0.91 ± 0.057,0.92 ± 0.08,0.919 ± 0.028,0.897 ± 0.071
BCAT2 (UniProt O15382),0.984 ± 0.033,0.903 ± 0.098,0.954 ± 0.033,0.9262 ± 0.0036,0.969 ± 0.013,0.8996 ± 0.0065
NPC1 (UniProt O15118),1.01 ± 0.013,1.04 ± 0.086,1.017 ± 0.0094,0.992 ± 0.038,1.014 ± 0.0045,0.9825 ± 0.0087
UniProt O00716 and related entries,1.01 ± 0.021,1.05 ± 0.014,1.03 ± 0.023,1 ± 0.017,1.02 ± 0.035,1.04 ± 0.015
POLR1C (UniProt O15160),1.02 ± 0.015,0.968 ± 0.089,1.01 ± 0.03,0.991 ± 0.041,1.02 ± 0.041,0.993 ± 0.04
UniProt O00522 and related entries,1.01 ± 0.036,0.979 ± 0.064,0.994 ± 0.064,0.967 ± 0.033,0.985 ± 0.037,0.987 ± 0.059
K7ERP1 and related entries (UniProt Q9GZN7),0.963 ± 0.019,0.9762 ± 0.0061,0.9548 ± 0.0065,0.977 ± 0.027,0.961 ± 0.07,0.956 ± 0.032

Target,NP40-soluble protein abundance (concentration: 1mM),NP40-soluble protein abundance (concentration: 2mM),NP40-soluble protein abundance (concentration: 4mM),NP40-soluble protein abundance (concentration: 6mM),NP40-soluble protein abundance (concentration: 8mM),NP40-soluble protein abundance (concentration: 10mM)
EEF1E1 (UniProt O43324),0.918 ± 0.046,0.952 ± 0.088,0.888 ± 0.079,0.861 ± 0.1,0.886 ± 0.14,0.857 ± 0.18
K7EPJ5 and related entries (UniProt O60291),0.971 ± 0.051,0.984 ± 0.038,0.968 ± 0.037,1.01 ± 0.038,1.01 ± 0.044,0.993 ± 0.029
DENR (UniProt O43583),1.012 ± 0.0088,1.03 ± 0.053,0.979 ± 0.037,0.966 ± 0.031,0.97 ± 0.03,0.923 ± 0.062
M0QY01 and related entries (UniProt Q9UBC2),1.02 ± 0.015,1.08 ± 0.06,1.04 ± 0.026,0.989 ± 0.035,0.953 ± 0.015,0.967 ± 0.025
NDUFA2 (UniProt O43678),0.926 ± 0.014,0.948 ± 0.033,0.933 ± 0.036,0.906 ± 0.033,0.903 ± 0.026,0.87 ± 0.031
B4GAT1 (UniProt O43505),0.991 ± 0.041,0.991 ± 0.031,1.02 ± 0.053,1 ± 0.024,0.995 ± 0.035,1.01 ± 0.03
PLRG1 (UniProt O43660),1.07 ± 0.03,1.1 ± 0.031,1.14 ± 0.033,1.13 ± 0.085,1.17 ± 0.049,1.21 ± 0.089
UniProt O15066 and related entries,1.022 ± 0.0017,1.06 ± 0.054,1.05 ± 0.047,1 ± 0.018,1.01 ± 0.025,1.01 ± 0.031
UniProt O43399 and related entries,0.964 ± 0.049,1.06 ± 0.078,0.977 ± 0.053,0.942 ± 0.067,0.87 ± 0.012,0.949 ± 0.064
UniProt O15111,1.02 ± 0.019,0.977 ± 0.058,1.01 ± 0.035,0.993 ± 0.03,0.997 ± 0.013,1.02 ± 0.011
SCO2 (UniProt O43819),0.972 ± 0.0067,0.949 ± 0.054,0.991 ± 0.04,0.95 ± 0.027,0.936 ± 0.015,0.934 ± 0.045
PRPF3 (UniProt O43395),0.996 ± 0.02,1 ± 0.032,1.03 ± 0.014,1.07 ± 0.039,1.1 ± 0.057,1.15 ± 0.062
SLC35A4 (UniProt L0R6Q1),0.926 ± 0.013,0.981 ± 0.037,0.909 ± 0.048,0.992 ± 0.045,0.918 ± 0.033,0.908 ± 0.042
K7EMK7 and related entries (UniProt Q04725),1 ± 0.022,1.0107 ± 0.0009,1 ± 0.015,1 ± 0.014,0.997 ± 0.015,1.011 ± 0.0099
TIMM44 (UniProt O43615),0.982 ± 0.019,0.981 ± 0.023,0.947 ± 0.011,0.9596 ± 0.0093,0.947 ± 0.023,0.923 ± 0.014
M0QX46 and related entries (UniProt Q6UUV9),1.01 ± 0.015,1.06 ± 0.099,1.04 ± 0.019,1.04 ± 0.038,1.02 ± 0.057,1.05 ± 0.06
UniProt O15085 and related entries,1.01 ± 0.059,1.02 ± 0.015,0.998 ± 0.024,1.006 ± 0.008,1 ± 0.012,0.9835 ± 0.0066
K7ELL7 and related entries (UniProt P14314),1.021 ± 0.0066,1.11 ± 0.15,1 ± 0.035,1.02 ± 0.022,1 ± 0.04,0.997 ± 0.039
UniProt O00165 and related entries,0.973 ± 0.028,0.942 ± 0.037,0.965 ± 0.063,0.932 ± 0.087,0.906 ± 0.045,0.926 ± 0.073
PIK3R2 (UniProt O00459),1 ± 0.04,1.01 ± 0.045,1.01 ± 0.019,0.968 ± 0.058,0.957 ± 0.057,0.937 ± 0.041

# Limited to NP40-soluble protein abundance (concentration: 1mM), for some of the entries so far:
Target,NP40-soluble protein abundance (concentration: 1mM)
K7EMK7 and related entries (UniProt Q04725),1 ± 0.022
TIMM44 (UniProt O43615),0.982 ± 0.019
M0QX46 and related entries (UniProt Q6UUV9),1.01 ± 0.015
UniProt O15085 and related entries,1.01 ± 0.059
K7ELL7 and related entries (UniProt P14314),1.021 ± 0.0066

# Taken from the listing for reference:
Target,NP40-soluble protein abundance (concentration: 1mM),NP40-soluble protein abundance (concentration: 2mM),NP40-soluble protein abundance (concentration: 4mM),NP40-soluble protein abundance (concentration: 6mM),NP40-soluble protein abundance (concentration: 8mM),NP40-soluble protein abundance (concentration: 10mM)
UniProt O00499-2|O00499-4|O00499-6|O00499-7|O00499-9,1.016 ± 0.0054,1.07 ± 0.046,1.04 ± 0.041,1.01 ± 0.016,0.97 ± 0.018,1 ± 0.062
CHMP2A (UniProt O43633),0.949 ± 0.013,1.02 ± 0.094,0.936 ± 0.021,0.966 ± 0.043,0.971 ± 0.031,0.915 ± 0.078

# (continued)

Target,NP40-soluble protein abundance (concentration: 1mM),NP40-soluble protein abundance (concentration: 2mM),NP40-soluble protein abundance (concentration: 4mM),NP40-soluble protein abundance (concentration: 6mM),NP40-soluble protein abundance (concentration: 8mM),NP40-soluble protein abundance (concentration: 10mM)
RNF113A (UniProt O15541),1.02 ± 0.038,1.04 ± 0.089,0.999 ± 0.029,0.979 ± 0.017,0.935 ± 0.012,0.973 ± 0.035
M0QZR4 (UniProt Q92888),1.011 ± 0.0025,1.03 ± 0.02,1.023 ± 0.0033,1.005 ± 0.0088,0.994 ± 0.0072,1.01 ± 0.012
COPE (UniProt O14579),1.05 ± 0.061,1.05 ± 0.068,1.06 ± 0.019,1.03 ± 0.021,1.06 ± 0.021,1.08 ± 0.063
M0R0Z3 and related entries (UniProt P35269),1.03 ± 0.028,1.11 ± 0.048,1.04 ± 0.041,1.06 ± 0.018,1.02 ± 0.017,1.09 ± 0.06
UniProt O43291,1 ± 0.022,1.04 ± 0.029,1.014 ± 0.0041,0.994 ± 0.01,0.996 ± 0.0066,0.9952 ± 9.1e-05
UniProt O15042-2|O15042,1.1 ± 0.054,1.16 ± 0.082,1.16 ± 0.07,1.22 ± 0.11,1.2 ± 0.11,1.29 ± 0.14
ARPC5 (UniProt O15511),1.05 ± 0.043,1.11 ± 0.12,1.02 ± 0.052,1.08 ± 0.013,1.01 ± 0.028,1.054 ± 0.01
UniProt O43422,1.01 ± 0.041,0.946 ± 0.04,0.945 ± 0.037,0.931 ± 0.013,0.8954 ± 0.0077,0.904 ± 0.033
UniProt O00592 and related entries,0.987 ± 0.036,1.04 ± 0.11,0.991 ± 0.067,0.987 ± 0.044,0.981 ± 0.064,1 ± 0.057
K7ELQ0 and related entries (UniProt Q9BYD3),0.995 ± 0.037,0.97 ± 0.033,0.975 ± 0.058,0.986 ± 0.033,0.998 ± 0.055,0.993 ± 0.049
K7ERW4 and related entries (UniProt Q6AI12),0.982 ± 0.051,0.986 ± 0.018,0.996 ± 0.02,0.9797 ± 0.0069,0.978 ± 0.027,0.9742 ± 0.0063
TAX1BP3 (UniProt O14907),1.05 ± 0.015,1.05 ± 0.049,1.01 ± 0.033,1.03 ± 0.016,1.02 ± 0.023,1.04 ± 0.061
O14925 and related entries (UniProt Q5SRD1+O14925),1.01 ± 0.035,0.997 ± 0.011,0.997 ± 0.025,1 ± 0.052,1.02 ± 0.035,1.02 ± 0.019
PFAS (UniProt O15067),0.99 ± 0.013,0.948 ± 0.063,0.9737 ± 0.0096,0.967 ± 0.024,0.959 ± 0.029,0.944 ± 0.032
UniProt O15226 and related entries,1.025 ± 0.0057,1.02 ± 0.045,1 ± 0.032,0.988 ± 0.033,0.9706 ± 0.0089,1.023 ± 0.0077
UniProt O43439-5,1.01 ± 0.021,1.014 ± 0.0005,1 ± 0.054,0.96 ± 0.026,0.954 ± 0.021,0.963 ± 0.041
PPIH (UniProt O43447),0.967 ± 0.053,0.936 ± 0.035,0.991 ± 0.071,1.02 ± 0.045,1.04 ± 0.044,1.07 ± 0.09
SCAMP3 (UniProt O14828),1.05 ± 0.036,1.08 ± 0.059,1.03 ± 0.032,1.01 ± 0.035,0.991 ± 0.048,1 ± 0.069
KIF1C (UniProt O43896),0.973 ± 0.016,0.965 ± 0.0051,0.9798 ± 0.0017,0.953 ± 0.011,0.9604 ± 0.0079,0.992 ± 0.019
EEF2K (UniProt O00418),0.985 ± 0.018,0.962 ± 0.045,0.976 ± 0.02,0.958 ± 0.018,0.946 ± 0.031,0.941 ± 0.021
